PubChem BioAssay AID743121, NCATS, 2013

- Purpose: 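Partners whose loss is lethal together with topoisomerase I blockade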 (primary screen)
- Cells: MDA-MB-231 cells, a human breast cancer line
- Reagents: single siRNA against human genes, 20 nM siRNA (0.8 pmol per well)
- Duration: 120 h (drug added 48 h after transfection, read 72 h later)
- Conditions: camptothecin 20 nM (about EC30) for 72 h; vehicle 0.1% DMSO in parallel plates
- Measurement: 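CellTiter-Glo ATP signal, scaled to control siRNA as percent viability; sensitisation given as log2 of untreated divided by camptothecin-treated viability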
- Direction: log2 vehicle/camptothecin viability: higher = stronger sensitisation to camptothecin; viability with camptothecin: higher = more viable cells
- Units: viability with camptothecin in % of control
- Call rule: 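Each gene scored by redundant siRNA activity (RSA) over its individual siRNA ratios; a gene is called active at p < 0.001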
Shown is a random part of about 26,000 deposited reagents. In the full data, 167 (0.63%) are marked active. 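Calls are per gene from RSA p-values that are not deposited; an individual active-marked siRNA can sensitise only weakly.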 Entries without a mark were called inactive. Reagents against one gene are numbered here. Not all columns of the deposit are shown.

What is on record for RHOJ #1?
log2 vehicle/camptothecin viability: 0.385; viability with camptothecin: 73.9

For RHOJ #2, what does the deposit list?
log2 vehicle/camptothecin viability: -0.417; viability with camptothecin: 66.4

Which result is listed for RHOJ #3?
log2 vehicle/camptothecin viability: 0.0596; viability with camptothecin: 91.1

How did the screen score RHOJ #4?
log2 vehicle/camptothecin viability: -0.175; viability with camptothecin: 100

For GRM6 #1, what was measured?
log2 vehicle/camptothecin viability: -0.087; viability with camptothecin: 84.5

With GRM6 #2, what was measured?
log2 vehicle/camptothecin viability: -0.278; viability with camptothecin: 37

What is on record for GRM6 #3?
log2 vehicle/camptothecin viability: -0.236; viability with camptothecin: 82.5

With GRM6 #4, what was measured?
log2 vehicle/camptothecin viability: -0.0719; viability with camptothecin: 96.6

Copied from above, 3 entries:
GRM6 #2 → log2 vehicle/camptothecin viability = -0.278; viability with camptothecin = 37
GRM6 #3 → log2 vehicle/camptothecin viability = -0.236; viability with camptothecin = 82.5
GRM6 #4 → log2 vehicle/camptothecin viability = -0.0719; viability with camptothecin = 96.6

Continued:
For GPR157 #1, what does the deposit list?
log2 vehicle/camptothecin viability: -0.0511; viability with camptothecin: 81

What is on record for GPR157 #2?
log2 vehicle/camptothecin viability: -0.509; viability with camptothecin: 70.3

For GPR157 #3, how do the results read?
log2 vehicle/camptothecin viability: -0.158; viability with camptothecin: 22.8

Which result is listed for GPR157 #4?
log2 vehicle/camptothecin viability: -0.301; viability with camptothecin: 82.3

What did the screen give for MAP2K4 #1?
log2 vehicle/camptothecin viability: -0.595; viability with camptothecin: 81.7

Which result is listed for MAP2K4 #2?
log2 vehicle/camptothecin viability: -0.324; viability with camptothecin: 124

With MAP2K4 #3, how do the results read?
log2 vehicle/camptothecin viability: -0.324; viability with camptothecin: 111

With MAP2K4 #4, what does the deposit list?
log2 vehicle/camptothecin viability: -0.18; viability with camptothecin: 92.5
